In publication doi:10.1101/2024.04.02.587808:
These are yes or no findings as the source states them, for the method shown. In cells and extracts the contact can be indirect.

Biological target: T1, mCherry-RILPL1 (RILP-like protein 1) (UniProt Q5EBL4)
T1 sequence: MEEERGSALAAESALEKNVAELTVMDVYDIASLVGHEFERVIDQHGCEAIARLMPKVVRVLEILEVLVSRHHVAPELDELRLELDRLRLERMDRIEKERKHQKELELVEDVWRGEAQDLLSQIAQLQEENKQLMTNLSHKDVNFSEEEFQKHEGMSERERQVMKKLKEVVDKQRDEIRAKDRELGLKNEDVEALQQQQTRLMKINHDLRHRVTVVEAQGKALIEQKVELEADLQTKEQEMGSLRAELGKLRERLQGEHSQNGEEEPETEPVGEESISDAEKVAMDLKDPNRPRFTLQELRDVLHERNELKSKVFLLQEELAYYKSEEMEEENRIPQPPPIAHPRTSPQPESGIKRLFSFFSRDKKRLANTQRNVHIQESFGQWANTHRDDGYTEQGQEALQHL
Assay: co-IP; HEK293FT cells transfected with 3xflag-LRRK2 and mCherry-RILPL1 for 24 h, treated or not with LLOME (1 mM, 2 h); lysate (150 mM NaCl, 0.3% Triton X-100) on RFP-Trap magnetic beads, 1 h, 4°C; washes with 300 mM NaCl, 0.1% Triton X-100; immunoblot

With “dynein-light intermediate chain (DLIC) (human (endogenous in HEK293FT))” the binding was “no binding”.
